Values quoted from earlier work, collected in patent US20070197577A1 (priority 2003, published 2007).
For at least one compound, name, drawing or mass did not settle the structure.

Test system: anthrax
Details: monkey, in vivo; cited from earlier work

C[C@H]1c2cccc(O)c2C(=O)C2=C(O)[C@]3(O)C(=O)C(C(N)=O)=C(O)[C@@H](N(C)C)[C@@H]3[C@@H](O)[C@@H]21 [doxycycline]
monkeys that survived a lethal aerosol challenge: 9 of 10
